US20170081401A1 (CLOSED JOINT STOCK COMPANY BIOCAD, published 2017)
Results are given in words; binding and its absence hold for the method and conditions named. Some binding calls cover weakened binding; strength is not graded here.

By UniProt entry, the sequences of proteins in these tests, tags left out. Residues count along the entry.
UniProt F6T3G5, residues 24-155: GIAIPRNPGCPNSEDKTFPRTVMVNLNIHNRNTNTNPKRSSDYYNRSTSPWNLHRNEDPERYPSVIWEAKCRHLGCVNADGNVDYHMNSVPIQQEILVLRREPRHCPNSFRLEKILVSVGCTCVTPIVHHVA
UniProt Q16552, residues 20-155: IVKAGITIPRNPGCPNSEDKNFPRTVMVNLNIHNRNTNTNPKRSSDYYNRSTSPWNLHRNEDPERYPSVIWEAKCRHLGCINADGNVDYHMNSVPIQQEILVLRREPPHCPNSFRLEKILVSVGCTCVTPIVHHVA

What was measured:
[1] = target: T1, monkey IL-17A (Macaca mulatta) (Macaca mulatta, UniProt F6T3G5 24-155); assay: BLI (OctetRed 96), BCD085 immobilized on AR2G sensors, monkey (Macaca mulatta) IL-17A as analyte, 30 C
[2] = target: T1, monkey IL-17A (Macaca mulatta); assay: BLI, OctetRed 96, BCD085 immobilized on AR2G sensors, IL-17A 126 nM to 2 nM, 1:1 model
human IL-17A [3] = target: T2, human IL-17A (human, UniProt Q16552 20-155, limits assumed); assay: as above
human IL-17A [4] = target: T2, human IL-17A; assay: BLI (OctetRed 96), BCD085 immobilized on AR2G sensors, human IL-17A as analyte, 30 C

Measured: binding

B1: BCD085 monoclonal anti-IL-17A antibody (antibody, V domains shown)
VH: QVQLVQSGGGLVQPGGSLRLSCAADGFTFSNYAMSWVRQAPGKGLEWVSRIEGGIGSSTYAVDSVKDRFTISRDDAKNTLYLQMSSLKTEDTAVYYCAVNYYGMYYWGQGTLVTVSS
VL: QSVLTQPPSVSVAPGKTVTISCTGTSEDVGFGNYVSWYQHLPGTAPKLLIYRVNTRPSGVPDRFSGSQSGNTASLTISGLQAEDEADYYCSSYKAGGTYVFGGGTKLTVLG
notes: Full-length antibody produced in CHO-S cells; also called the candidate; monoclonal anti-IL-17A antibody of the invention
binds: all assays above
